Some of these results come from one statement about several compounds together. For at least one compound, name, drawing or mass did not settle the structure.
Legend:
[1] = test system: amino acid homo- and hetero-polymers; test: Dye staining of amino acid homo- and hetero-polymers copolymerized into polyacrylamide gel discs
Source text: The specificity of protein detection of the present method can be compared to that of silver, CBB, SYPRO Orange dye and SYPRO Red dye staining for a variety of synthetic poly(amino acids) copolymerized into a polyacrylamide gel matrix. To do this, homopolymers of L-arginine, asparagine, histidine, lysine, aspartate, glutamate, alanine, glycine, isoleucine, leucine, methionine, serine, threonine, tryptophan, tyrosine and proline are copolymerized into 15% T, 2.6% C polyacrylamide gels at a concentration of […]. Except when indicated, 0.1% sodium dodecyl sulfate is included in the polyacrylamide solution as well. The amino acid heteropolymers, poly(glutamate, alanine, tyrosine), poly(glutamate, tyrosine), poly(lysine, tyrosine), poly(glutamate, lysine, tyrosine), and poly(arginine, tyrosine) are copolymerized into polyacrylamide gels in an identical manner as the homopolymers. Blank gels containing no polymer are prepared for reference. […] Gel discs are quantified on a Roche Lumi-Imager system (Indianapolis, Ind.) and classified into three groups based upon staining intensity (strong, moderate, or weak staining).

[2] = test system: BSA, lysozyme, or a protein mixture (BSA, lysozyme, goat IgG, and streptavidin); test: Quantitation of protein concentrations in solution (Example 32); conditions: 10 mM Tris-HCl, pH 7.5, 0.05% SDS, 485-nm excitation

| Structure (SMILES) | Reduction of staining of poly-L-tyrosine and poly-L-tryptophan in the absence of SDS [1] | Linear fluorescence detection range [2] [µg/mL] |
| --- | --- | --- |
| CCn1c2ccccc2c2cc(/C=C/c3cc[n+](CCCCS(=O)(=O)[O-])c4ccccc34)ccc21 [Compound 9] | 2-3 fold | 0.1 to 10 |
| CCOCC(=O)CCC[n+]1ccc(/C=C/c2ccc3c(c2)c2ccccc2n3CC)c2ccccc21.[Br-] [Compound 10] | – | 0.1 to 10 |
